Reference: publication PMC4627417
These are yes or no findings as the source states them, for the method shown. In cells and extracts the contact can be indirect. A yes stands for co-enrichment or nearness to the bait. Other partners may have been found. Sequences can lack the tags named with a protein.

Target: 3XMyc-RPRD1B wild type (full length) (human) (UniProt Q9NQG5)
Test: affinity purification with mass spectrometry; SILAC: tetracycline-induced 3XMyc-RPRD1B WT (heavy) and MT (light) in 293 Flp-In cells, anti-Myc immunoprecipitates from total lysate combined and analysed by MS

- binding: binds
B1: CHERP (protein, UniProt Q8IWX8 1-916)
chain: MEMPLPPDDQELRNVIDKLAQFVARNGPEFEKMTMEKQKDNPKFSFLFGGEFYSYYKCKLALEQQQLICKQQTPELEPAATMPPLPQPPLAPAAPIPPAQGAPSMDELIQQSQWNLQQQEQHLLALRQEQVTAAVAHAVEQQMQKLLEETQLDMNEFDNLLQPIIDTCTKDAISAGKNWMFSNAKSPPHCELMAGHLRNRITADGAHFELRLHLIYLINDVLHHCQRKQARELLAALQKVVVPIYCTSFLAVEEDKQQKIARLLQLWEKNGYFDDSIIQQLQSPALGLGQYQATLINEYSSVVQPVQLAFQQQIQTLKTQHEEFVTSLAQQQQQQQQQQQQLQMPQMEAEVKATPPPPAPPPAPAPAPAIPPTTQPDDSKPPIQMPGSSEYEAPGGVQDPAAAGPRGPGPHDQIPPNKPPWFDQPHPVAPWGQQQPPEQPPYPHHQGGPPHCPPWNNSHEGMWGEQRGDPGWNGQRDAPWNNQPDAAWNSQFEGPWNSQHEQPPWGGGQREPPFRMQRPPHFRGPFPPHQQHPQFNQPPHPHNFNRFPPRFMQDDFPPRHPFERPPYPHRFDYPQGDFPAEMGPPHHHPGHRMPHPGINEHPPWAGPQHPDFGPPPHGFNGQPPHMRRQGPPHINHDDPSLVPNVPYFDLPAGLMAPLVKLEDHEYKPLDPKDIRLPPPMPPSERLLAAVEAFYSPPSHDRPRNSEGWEQNGLYEFFRAKMRARRRKGQEKRNSGPSRSRSRSKSRGRSSSRSNSRSSKSSGSYSRSRSRSCSRSYSRSRSRSRSRSRSSRSRSRSQSRSRSKSYSPGRRRRSRSRSPTPPSSAGLGSNSAPPIPDSRLGEENKGHQMLVKMGWSGSGGLGAKEQGIQDPIKGGDVRDKWDQYKGVGVALDDPYENYRRNKSYSFIARMKARDECK
